Patent US6677433B2 (The Regents of the University of California, priority 2001, dated 2004)

Experiments:
[1] = Bread baking test, loaf volume; details: cv. Thesee flour 200 g
[2] = system: wheat protease preparation; test: Proteolysis by a plant protease preparation (SDS-PAGE, laser densitometer); type: biochemical
Procedure: The endosperm (10-15 g fresh weight) isolated from 5-day germinated wheat seeds by excising the roots and shoots was extracted for 30 minutes at 4° C. with 5 volumes of 200 mM sodium acetate, pH 4.6, containing 10 mM β-mercaptoenthanol. The homogenate was centrifuged for 20 minutes at 48,000 g, 4° C. The pellet was discarded and the supernatant fluid was fractionated with 30-70% ammonium sulfate. This fraction, which represented the protease preparation, was resuspended in a minimum volume of 20 mM sodium acetate, pH 4.6, containing 10 mM β-mercaptoenthanol, and dialyzed against this buffer overnight at 4° C.
Unless indicated, the reduction of the trypsin inhibitors (0.4 mg/ml) was carried out in 0.1 ml of 20 mM sodium phosphate buffer, pH 7.9 containing 10 mM EDTA at 30° C. for 2 hours. The concentrations of thioredoxin, NTR, and NADPH were 0.024 mg/ml, 0.02 mg/ml, and 0.25 mM, respectively. […] Following reduction, aliquots of the inhibitor mixture were withdrawn either for determination of trypsin inhibitory activity or proteolytic susceptibility. In the subtilisin tests, the inhibitor mixture (50 μl) was directly mixed with subtilisin and incubated at room temperature for 1 hour. With the wheat protease preparation, the pH of the inhibitor mixture (50 μL) was first adjusted to 4.7 by mixing with 35 μl of 200 mM sodium acetate, pH 4.6; 10 μl of the wheat protease preparation was then added and incubation was continued for 2 hours at 37° C. To stop digestion with subtilisin, 2 μl of 100 mM phenylmethylsulfonyl fluoride (PMSF) and 10 μl of 10% SDS were added to the digestion mixture. With the plant protease preparation, digestion was stopped by adding an equal volume of SDS sample buffer [0.125 M Tris-HCl, pH 6.8, 4% (w/v) SDS, 20% (v/v) glycerol, 10% (v/v) β-mercaptoethanol, and 0.02% (w/v) bromophenol blue]. Proteolytic products were analyzed by electrophoresis with 12% or 16% SDS polyacrylamide slab gels (Laemmli, 1970). The dried slab gels were scanned with a laser densitometer (Pharmacia-LKB UltraScan XL) and the peak area of the KTI or BBTI protein band was obtained by integration with a Pharmacia GelScan XL software program.
To test whether the reduced forms of KTI and BBTI show decreased stability to proteases other than trypsin, both the reduced and oxidized forms of KTI and BBTI were incubated with a wheat protease preparation or with subtilisin and the proteolytic products were analyzed by SDS-PAGE. The extent of proteolysis was determined by measuring the abundance of intact protein on SDS gels by laser densitometer. When tested with a protease preparation from 5-day germinated wheat seeds, the oxidized form of the Kunitz inhibitor was almost completely resistant to digestion whereas the thioredoxin-reduced form was susceptible to protease. […] The nature of the proteolytic reaction was not investigated, but it is noted that peptide products were not detected on SDS gels.

**Q.** Which results are given for `NC(=O)C1=CN([C@@H]2O[C@H](COP(=O)(O)OP(=O)(O)OC[C@H]3O[C@@H](n4cnc5c(N)ncnc54)[C@H](OP(=O)(O)O)[C@@H]3O)[C@@H](O)[C@H]2O)C=CC1` [NADPH]?
**A.** Loaf Volume, Relative Units ([1]; control = 100): 92; Loaf Volume ([1]; where added NADPH 6.0, NTR 30 μg, Th 60 μg (yeast: NTR 9.4, Th 20), control 1690): 1550 cm3

B1: Soybean Kunitz: Kunitz soybean trypsin inhibitor (protein, UniProt P01070 25-205, looked up)
Trypsin inhibitor A: DFVLDNEGNPLENGGTYYILSDITAFGGIRAAPTGNERCPLTVVQSRNELDKGIGTIISSPYRIRFIAEGHPLSLKFDSFAVIMLCVGIPTEWSVVEDLPEGPAVKIGENKDAMDGWFRLERVSDDEFNNYKLVFCPQQAEDDKCGDIGISIDHDDGTRRLVVSKNKPLVVQFQKLDKESL
**Q.** For B1, which “Relative Abundance, Protease, NTS minus NADPH” value [2] is on record?
**A.** 97.7

**Q.** What about the “Relative Abundance, Protease, NTS minus NTR” value [2] of the same molecule?
**A.** 97.9

**Q.** What about the “Relative Abundance, Protease, NTS minus thioredoxin” value [2] of the same molecule?
**A.** 90.2

**Q.** And the “Relative Abundance, Protease, No reduction system” value ([2]; no protease = 100, 37° C., 2 hours, pH 4.7)?
**A.** 97.9

**Q.** And the “Relative Abundance, Protease, E. coli NTS” value ([2]; reduction 30° C., 2 hours)?
**A.** 22.1
